Measured values taken from patent US20150126516A1, “PIPERIDINE COMPOUND AND ITS USE IN PEST CONTROL” (Sumitomo Chemical Company, Limited, priority 2012, published 2015).
Some results were stated once for a whole list of compounds, not compound by compound.

Tests used:
two-spotted spider mites = assay: Controlling effect on two-spotted spider mite, spray on inoculated bush bean seedlings; assay type: in vivo, Tetranychus urticae; settings: 500 ppm, 30 ml sprayed on bush bean seedlings with about 60 female imagoes, 8 days after spraying
brown planthoppers = assay: Controlling effect on brown planthopper, spray on rice seedlings; assay type: in vivo, Nilaparvata lugens; settings: 500 ppm, 10 ml sprayed on rice seedlings, 20 third- to fourth-instar larvae, 25° C., after 6 days
[1] = tested on: oriental leafworm moth (Spodoptela litura); assay: Controlling effect on oriental leafworm moth, treated artificial feed; assay type: in vivo; settings: 500 ppm, 2 mL on artificial feed, 5 fourth-instar larvae, 25° C., after 6 days

Q: What does the source list for `O=C(NCC1(c2ccccc2)CCN(CCc2ccccc2C(F)(F)F)CC1)c1cc(Cl)nc(Cl)c1` [compound 1, 2,6-dichloro-N-((4-phenyl-1-(2-(trifluoromethyl)phenethyl)piperidin-4-yl)methyl)isonicotinamide]?
A: Controlling rate (two-spotted spider mites): ≥ 90%; Controlling value (brown planthoppers): ≥ 90%; Mortality [1]: ≥ 80%

Q: Which Mortality [1] does the source give for `O=C(NCC1(c2ccccc2)CCN(CCc2ccccc2C(F)(F)F)CC1)c1cccc(Cl)c1` [compound 13, 3-chloro-N-((4-phenyl-1-(2-(trifluoromethyl)phenethyl)piperidin-4-yl)methyl)benzamide] here?
A: Its Mortality is no less than 80%.

Q: How did the Mortality [1] turn out when `O=C(NCC1(c2ccccc2)CCN(CCc2ccccc2C(F)(F)F)CC1)c1cc(Cl)cc(Cl)c1` [compound 17, 3,5-dichloro-N-((4-phenyl-1-(2-(trifluoromethyl)phenethyl)piperidin-4-yl)methyl)benzamide] was run?
A: Its Mortality is no less than 80%.

Q: For `O=C(NCC1(c2ccccc2)CCN(CCc2cccc(Cl)c2Cl)CC1)c1cc(Cl)nc(Cl)c1` [compound 33, 2,6-dichloro-N-((1-(2,3-dichlorophenethyl)-4-phenylpiperidin-4-yl)methyl)isonicotinamide], which Mortality [1] is on record?
A: The Mortality was no less than 80%.
